Values from PubChem BioAssay AID1259308 (NCATS, 2017).
This is one part, drawn at random, of about 59,000 reagents tested. In the full data, about 1,510 (2.6%) are marked active. 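Calls use total luciferase alone and ignore viability, so some active siRNAs may act by altering cell number.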 A number with no mark means an inactive call. Reagents against one gene are numbered here. Not all columns of the deposit are shown.

Screen: 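Candidate targets for better recombinant protein yield in mammalian cells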 (primary screen)
Cell system: human HEK293 embryonic kidney cells stably expressing firefly luciferase (HEK-CMV-Luc2-Hygro)
Knock-down reagent: single siRNA against human genes, 0.8 pmol siRNA per well
Duration: 72 h
Measured: 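Luciferase light (ONE-Glo) measured on one replicate plate set and viability (CellTiter-Glo) on the other, scaled to a negative control siRNA, with robust z-scores and luciferase per cell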
Scale: total luciferase, z-score and total luciferase, % of control: higher = more reporter protein produced
Hit rule: 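An siRNA counts as active if its total luciferase robust z-score exceeds 3; genes with two or more such siRNAs out of three were retested with fresh siRNAs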
Meaning of the calls: active = raised luciferase; inactive = no rise

gene knocked down | reagent | total luciferase, z-score | total luciferase, % of control
UGDH (UDP-glucose 6-dehydrogenase) | 1 | 0.564 | 93.1
UGDH (UDP-glucose 6-dehydrogenase) | 2 | 2.13 | 124
UGDH (UDP-glucose 6-dehydrogenase) | 3 | 0.435 | 90.5
RAVER2 (ribonucleoprotein, PTB binding 2) | 1 | -0.309 | 75.7
RAVER2 (ribonucleoprotein, PTB binding 2) | 2 | -0.0989 | 79.9
RAVER2 (ribonucleoprotein, PTB binding 2) | 3 | -0.138 | 79.1
SUN5 (Sad1 and UNC84 domain containing 5) | 1 | -1.52 | 51.7
SUN5 (Sad1 and UNC84 domain containing 5) | 2 | 1.61 | 114
SUN5 (Sad1 and UNC84 domain containing 5) | 3 | 0.908 | 99.9
H2AC11 (H2A clustered histone 11) | 1 | 0.164 | 85.2
H2AC11 (H2A clustered histone 11) | 2 | -2.31 | 35.9
H2AC11 (H2A clustered histone 11) | 3 | -1.14 | 59.3
RFX3 (regulatory factor X3) | 1 | 0.255 | 87
RFX3 (regulatory factor X3) | 2 | -1.49 | 52.2
RFX3 (regulatory factor X3) | 3 | 0.211 | 86.1
EDF1 (endothelial differentiation related factor 1) | 1 | 1.4 | 110
EDF1 (endothelial differentiation related factor 1) | 2 | 0.0148 | 82.2
EDF1 (endothelial differentiation related factor 1) | 3 | -0.631 | 69.3
ABCC5 (ATP binding cassette subfamily C member 5) | 1 | -0.443 | 73.1
ABCC5 (ATP binding cassette subfamily C member 5) | 2 | -0.0295 | 81.3
ABCC5 (ATP binding cassette subfamily C member 5) | 3 | -0.335 | 75.2
GUCA1A (guanylate cyclase activator 1A) | 1 | -1.46 | 52.9
GUCA1A (guanylate cyclase activator 1A) | 2 | 0.854 | 98.9
GUCA1A (guanylate cyclase activator 1A) | 3 | -0.655 | 68.9
